In PMC6030175, “A senataxin-associated exonuclease SAN1 is required for resistance to DNA interstrand cross-links”:
No constants are given. Whether binding was seen depends on the method and setting. In cells and extracts the contact can be indirect. For some assays here: Where a sequence is shown, tags or fusion partners need not be part of it.

The chains behind the UniProt entries cited, without tags or fusion partners. Where a name states a change or a piece, a line headed by the entry shows the natural chain unless it says otherwise.
UniProt Q96EK7: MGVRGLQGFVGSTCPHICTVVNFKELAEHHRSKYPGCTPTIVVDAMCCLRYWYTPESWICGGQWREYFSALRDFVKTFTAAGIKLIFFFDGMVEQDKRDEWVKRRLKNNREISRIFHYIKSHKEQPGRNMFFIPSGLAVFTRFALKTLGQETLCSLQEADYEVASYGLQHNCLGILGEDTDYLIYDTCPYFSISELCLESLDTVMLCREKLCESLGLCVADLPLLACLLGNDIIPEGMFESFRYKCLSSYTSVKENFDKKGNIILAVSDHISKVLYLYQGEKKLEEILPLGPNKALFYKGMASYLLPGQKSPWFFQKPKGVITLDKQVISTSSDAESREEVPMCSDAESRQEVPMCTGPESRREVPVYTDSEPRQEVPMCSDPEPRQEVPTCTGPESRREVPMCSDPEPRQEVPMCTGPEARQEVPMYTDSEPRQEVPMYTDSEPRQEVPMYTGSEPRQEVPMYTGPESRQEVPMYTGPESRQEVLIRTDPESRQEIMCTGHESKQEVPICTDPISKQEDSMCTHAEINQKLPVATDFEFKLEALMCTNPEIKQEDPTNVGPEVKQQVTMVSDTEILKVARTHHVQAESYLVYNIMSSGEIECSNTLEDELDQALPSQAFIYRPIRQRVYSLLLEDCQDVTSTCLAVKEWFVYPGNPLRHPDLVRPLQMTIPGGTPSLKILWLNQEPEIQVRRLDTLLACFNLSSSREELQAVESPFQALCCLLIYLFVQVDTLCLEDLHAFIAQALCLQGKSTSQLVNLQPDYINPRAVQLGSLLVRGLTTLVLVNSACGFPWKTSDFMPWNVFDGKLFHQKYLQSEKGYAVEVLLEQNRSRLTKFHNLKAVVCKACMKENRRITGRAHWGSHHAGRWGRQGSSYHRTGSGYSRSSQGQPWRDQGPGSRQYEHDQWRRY
UniProt Q7Z333: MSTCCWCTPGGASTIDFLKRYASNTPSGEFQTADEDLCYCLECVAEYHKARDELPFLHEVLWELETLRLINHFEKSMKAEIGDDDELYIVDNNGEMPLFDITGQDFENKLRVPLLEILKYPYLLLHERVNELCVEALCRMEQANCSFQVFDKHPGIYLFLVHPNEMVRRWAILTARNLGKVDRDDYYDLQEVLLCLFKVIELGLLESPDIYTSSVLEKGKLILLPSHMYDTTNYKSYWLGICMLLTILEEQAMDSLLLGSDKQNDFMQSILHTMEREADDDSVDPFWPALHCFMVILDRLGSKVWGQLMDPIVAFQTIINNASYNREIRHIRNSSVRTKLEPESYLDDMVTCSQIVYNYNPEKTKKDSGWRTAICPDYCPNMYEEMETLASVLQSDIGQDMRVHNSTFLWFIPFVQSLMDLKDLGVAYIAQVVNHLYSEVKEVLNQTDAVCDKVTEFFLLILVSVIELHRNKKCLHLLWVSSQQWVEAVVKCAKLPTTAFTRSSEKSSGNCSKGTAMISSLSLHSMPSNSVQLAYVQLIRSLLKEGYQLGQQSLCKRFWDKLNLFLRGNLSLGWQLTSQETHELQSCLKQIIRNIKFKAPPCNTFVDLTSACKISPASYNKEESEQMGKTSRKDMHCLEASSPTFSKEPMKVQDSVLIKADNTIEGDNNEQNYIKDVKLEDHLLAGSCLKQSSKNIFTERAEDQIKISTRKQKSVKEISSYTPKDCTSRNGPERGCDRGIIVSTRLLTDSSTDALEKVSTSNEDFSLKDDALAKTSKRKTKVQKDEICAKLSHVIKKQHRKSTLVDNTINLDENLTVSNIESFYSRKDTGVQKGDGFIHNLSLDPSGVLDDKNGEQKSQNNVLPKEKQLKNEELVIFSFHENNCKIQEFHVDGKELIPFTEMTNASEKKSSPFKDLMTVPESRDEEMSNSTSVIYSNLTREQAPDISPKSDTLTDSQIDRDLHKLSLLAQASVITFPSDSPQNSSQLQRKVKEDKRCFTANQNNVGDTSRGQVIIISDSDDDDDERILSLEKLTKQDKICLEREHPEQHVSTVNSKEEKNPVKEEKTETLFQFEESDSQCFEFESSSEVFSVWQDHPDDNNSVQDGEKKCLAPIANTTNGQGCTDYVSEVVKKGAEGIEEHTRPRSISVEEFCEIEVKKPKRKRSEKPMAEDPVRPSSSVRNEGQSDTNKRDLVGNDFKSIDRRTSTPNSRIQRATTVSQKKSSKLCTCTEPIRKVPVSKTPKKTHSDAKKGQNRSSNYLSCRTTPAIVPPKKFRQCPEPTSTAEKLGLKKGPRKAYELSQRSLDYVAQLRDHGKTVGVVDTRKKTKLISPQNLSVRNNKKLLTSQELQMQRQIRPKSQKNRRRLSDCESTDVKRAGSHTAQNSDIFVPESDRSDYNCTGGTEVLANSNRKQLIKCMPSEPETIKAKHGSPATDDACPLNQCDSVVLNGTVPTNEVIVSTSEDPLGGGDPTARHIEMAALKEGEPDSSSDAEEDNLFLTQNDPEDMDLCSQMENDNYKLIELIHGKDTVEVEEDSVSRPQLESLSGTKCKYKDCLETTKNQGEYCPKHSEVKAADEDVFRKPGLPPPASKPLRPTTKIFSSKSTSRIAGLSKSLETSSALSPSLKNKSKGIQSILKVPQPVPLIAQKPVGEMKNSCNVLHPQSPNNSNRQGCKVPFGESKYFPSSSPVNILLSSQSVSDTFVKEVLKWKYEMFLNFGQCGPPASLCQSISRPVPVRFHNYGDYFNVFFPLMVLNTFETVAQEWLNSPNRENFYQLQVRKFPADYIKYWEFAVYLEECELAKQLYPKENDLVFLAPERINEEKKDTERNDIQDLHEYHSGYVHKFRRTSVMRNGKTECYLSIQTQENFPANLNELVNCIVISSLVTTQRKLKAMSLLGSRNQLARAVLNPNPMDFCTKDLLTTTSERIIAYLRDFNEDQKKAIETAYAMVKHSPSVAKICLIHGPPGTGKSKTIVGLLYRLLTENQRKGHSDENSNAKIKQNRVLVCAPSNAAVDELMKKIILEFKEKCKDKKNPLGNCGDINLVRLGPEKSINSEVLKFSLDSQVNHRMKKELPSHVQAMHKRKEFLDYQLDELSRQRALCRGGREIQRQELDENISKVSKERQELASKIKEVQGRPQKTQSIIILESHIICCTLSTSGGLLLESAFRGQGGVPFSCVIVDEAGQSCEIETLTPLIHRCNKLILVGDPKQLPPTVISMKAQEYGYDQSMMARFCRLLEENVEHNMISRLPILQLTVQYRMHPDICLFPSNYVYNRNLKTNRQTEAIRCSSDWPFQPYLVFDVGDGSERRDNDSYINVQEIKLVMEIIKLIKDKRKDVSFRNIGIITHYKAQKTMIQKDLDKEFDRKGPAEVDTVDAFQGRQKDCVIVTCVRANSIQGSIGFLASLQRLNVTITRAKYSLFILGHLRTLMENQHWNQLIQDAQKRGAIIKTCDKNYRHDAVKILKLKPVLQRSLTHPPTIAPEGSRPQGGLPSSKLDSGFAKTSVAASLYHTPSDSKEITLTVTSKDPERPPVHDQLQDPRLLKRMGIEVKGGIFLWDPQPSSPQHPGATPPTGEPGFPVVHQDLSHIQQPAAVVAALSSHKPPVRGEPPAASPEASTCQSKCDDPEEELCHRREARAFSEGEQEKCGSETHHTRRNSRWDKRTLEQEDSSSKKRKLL

Assays:
[1] = target: SAN1ΔRep-ssf (SAN1 lacking the central repeats region, Strep2-FLAG) (human) (UniProt Q96EK7); assay: co-IP; soluble nuclear fraction of HeLa SETX-FLAG-GFP cells expressing SAN1-ssf or SAN1ΔRep-ssf, +/- 1 μM MMC; SAN1 captured on Strep-Tactin beads, eluted with desthiobiotin; immunoblot
[2] = target: SAN1ΔRep-FLAG (SAN1 mutant lacking the central repeat region) (human) (UniProt Q96EK7); assay: co-IP; 293T cells co-transfected; lysis in 25 mM HEPES pH 7.4, 150 mM NaCl, 0.5% Triton-X 100; anti-FLAG M2 agarose 1 h at 4 °C; immunoblot for FLAG and Myc

Row | binding [1] | binding [2] | Molecule
1 | no binding | – | Senataxin-FLAG-GFP (full length SETX-Flag-GFP) (from UniProt Q7Z333 1-2677)
2 | – | no binding | Myc-mSETX fragment (myc-SETX-SID fragment) (domain or fragment, UniProt A2AKX3 876-1103) DKLQIQEGRADDDLVSFTEVTDTLVKAPCEGHVKMVVESRDKEMRESTALTSNLVEGQVPHDSSKPLVAGRQIDLCNITLISQTTVIQFPSGLSKQNSFQLQKGDKRCLTANQNSAATCRGQVIVISDSDEEEDEDEDERSSSEENIKQSKACIGKDCSEHRSLAVNASVEKQLVKEEERYPVEFEDSESQVFEFESSSEVFSVWQDHKIDSKNSLQGEQKSYVTHVA
